Measurements from article PMC5871334.
These are yes or no findings as the source states them, for the method shown. In cells and extracts the contact can be indirect.

By UniProt entry, the sequences of proteins in these tests, tags left out.
UniProt Q00987: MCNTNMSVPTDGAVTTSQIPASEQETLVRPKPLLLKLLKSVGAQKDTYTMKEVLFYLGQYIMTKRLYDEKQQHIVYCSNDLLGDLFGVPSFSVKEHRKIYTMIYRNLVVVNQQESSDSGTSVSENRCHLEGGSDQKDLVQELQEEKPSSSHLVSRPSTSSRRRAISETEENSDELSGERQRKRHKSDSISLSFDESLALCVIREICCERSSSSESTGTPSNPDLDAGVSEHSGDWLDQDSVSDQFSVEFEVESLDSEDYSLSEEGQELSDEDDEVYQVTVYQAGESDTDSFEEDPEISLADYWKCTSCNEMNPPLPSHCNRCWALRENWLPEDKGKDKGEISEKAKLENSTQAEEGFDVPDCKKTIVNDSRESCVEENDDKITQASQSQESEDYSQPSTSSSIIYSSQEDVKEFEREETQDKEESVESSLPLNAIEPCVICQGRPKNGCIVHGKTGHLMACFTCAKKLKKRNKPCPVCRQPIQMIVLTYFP

Molecular target: HA-MDM2 (human) (UniProt Q00987)
Test: co-IP; HCT116 p53-/- cells transfected with tagged proteins for 48 hr; lysates immunoprecipitated with anti-Flag or anti-HA antibody, western blot

**Q.** Which binding does the source give for Myc-SPIN1 (from UniProt Q9Y657 1-262) here?
**A.** The binding was “no binding”.
